# Results published in PubChem BioAssay AID2685 (National Center for Advancing Translational Sciences (NCATS), 2010).
# This is one part of the list. Shown are side measurements of this screen, not its main read-out; they come without a call. The list favours compounds with an active or inconclusive main result. Potencies come from curve fits of mixed quality, noted in brackets.
# Test: qHTS Assay for Lipid Storage Modulators in Drosophila S3 Cells;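 as to cell number change: cells counted by Cell Tracker Red CMTPX staining in the red channel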
# Details: BODIPY lipid droplet fluorescence, 18-24 h; for cell number change: measured here: cell count max response, cells fed with added oleic acid
# Outline: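 Drosophila S3 cells loaded with oleic acid (400 uM, as added) and compounds at several concentrations; lipid droplets imaged by 488-nm laser-scanning cytometry, 500–530 nm intensity and object ratio to cell channel. Percent activity normalized to 20 uM Triacsin C.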
# [1] = measured here: cell number channel AC50, cells fed with added oleic acid
# [2] = measured here: lipid fluorescence (Fed channel) AC50, cells fed with added oleic acid
Compound,cell number change [%],AC50 [1],AC50 [2]
Cc1nc(N2CCN(S(=O)(=O)c3ccccc3C#N)CC2)c2c(-c3cccs3)csc2n1,-15.3,"3.66 µM [rising, single point]",
COc1ccc(C(C(O)C(=O)c2c[nH]c3ccccc23)N2CCN(c3ccccc3)CC2)cc1 (stereo not given),,,"2.06 µM [rising, partial curve]"
S=c1[nH]nc(-c2ccccn2)n1/N=C/c1cccs1,,"0.00517 µM [falling, full curve, poor fit]","0.058 µM [rising, full curve]"
O=C(CCNC(=O)C1CCN(S(=O)(=O)c2ccccc2)CC1)NCc1ccc(Cl)cc1,15.3,,
O=C(OCC(=O)N1CCN(S(=O)(=O)c2ccc(Cl)cc2)CC1)c1ccc([N+](=O)[O-])o1,14.1,,"1.64 µM [falling, partial curve]"
Cc1ccc(CN(CC(=O)N/N=C/c2ccco2)S(=O)(=O)c2ccc(C)cc2)cc1,69.6,"3.26 µM [rising, partial curve]","1.3 µM [rising, full curve]"
CCNc1nc(OC)nc(Oc2ccc(=O)n(-c3ccccc3)n2)n1,,"0.13 µM [falling, full curve, poor fit]",
Cc1ccc(S(=O)(=O)c2c(C)cc(C)nc2Oc2cccc(C)c2C)cc1,20.1,,"29.1 µM [rising, single point]"
CCc1cccc(NC(=O)COC(=O)/C=C/c2cccs2)c1,-5.5,,
O=C1C2CC=CCC2C(=O)N1c1ccc(NCCc2ccccc2)c([N+](=O)[O-])c1 (stereo not given),15.7,,"0.82 µM [rising, partial curve, poor fit]"
O=c1[nH]c(/C=C/c2ccc(Br)cc2)nc2c1cnn2-c1ccccc1,-6.77,"0.116 µM [falling, full curve]",
COc1ccc(N/C=C2\C(=O)CCc3c2oc2cc(Cl)c(O)c(Cl)c32)cc1,-3.44,,"29.1 µM [falling, single point]"
Cc1cccc(C)c1NC(=O)NCCSc1snnc1C,39.8,"7.31 µM [rising, partial curve]","2.06 µM [rising, full curve]"
CC(=O)Nc1ccc(OCCOc2ccc(/C=C3\C(=N)N4N=C(C)SC4=NC3=O)cc2)cc1,-9.72,,
COc1ccc2oc3ccccc3c(=O)c2c1,30.4,"1.16 µM [rising, full curve, poor fit]","6.51 µM [falling, single point]"
Cc1ccc(N2C(=O)c3ccc(C(=O)N4CCN(Cc5ccccc5)CC4)cc3C2=O)cc1,-15.6,,"2.31 µM [falling, full curve]"
Nc1nc(NCc2ccco2)nc(Nc2ccc(F)cc2)c1[N+](=O)[O-],21.6,,"0.651 µM [falling, single point]"
Cc1ccc(C(=O)NNC(=O)C2CCN(c3ncccn3)CC2)cc1,28.4,,"29.1 µM [rising, single point]"
Cc1cccc(/N=C/C2=C(O)CC(C)(C)CC2=O)n1,-26.8,,"2.59 µM [falling, full curve]"
CCOc1ccc2nc(N3C(=O)C(O)=C(C(=O)c4ccco4)C3c3ccco3)sc2c1 (stereo not given),-11.1,"7.31 µM [falling, partial curve]","0.58 µM [falling, full curve]"

Compound,cell number change [%],AC50 [1],AC50 [2]
CCCn1c(SCC(=O)Nc2ccc3c(c2)OCCO3)n[nH]c1=O,-7.63,,
CC(C)Nc1ccccc1,-3.05,,"0.116 µM [rising, single point]"
CC(=O)NCCn1c(SCc2ccccc2F)nc2ccccc2c1=O,-17.9,,"7.31 µM [falling, partial curve]"
CCN(Cc1ccccc1)C(=O)CSc1nncn1C,-20.8,,
Cc1csc(=O)n1CCC(=O)OC(C)C(=O)Nc1ccc(N2CCOCC2)cc1 (stereo not given),-11,"5.8 µM [falling, single point]","6.51 µM [falling, single point]"
COC(=O)C1CCN(C(=O)[C@H](C)NC(=O)C2CC(=O)N(c3ccc(F)cc3)C2)CC1 (stereo not given in full),-16.3,,"2.91 µM [falling, single point]"
COc1ccccc1COCC(O)CNCCc1ccc(C(F)(F)F)cc1 (stereo not given),,"4.61 µM [rising, single point]",
O=C(O)c1sccc1S(=O)(=O)N1CCOCC1,-32.4,"1.84 µM [falling, full curve]","0.517 µM [falling, full curve]"
O=C(Nc1cccnc1)OCc1ccccc1,3.15,,"29.1 µM [rising, single point]"
O=C(N/C(=C/c1ccco1)C(=O)N1CCCCCC1)c1cccs1,21.8,,"0.259 µM [rising, full curve, poor fit]"
CC(C)(C)n1ncc2c(=O)n(CC(=O)Nc3ccc(Cl)cc3)cnc21,12.2,,
COc1ccc(C(=O)N2CCC(C(=O)NCc3ccccn3)CC2)cc1,-36.3,"14.6 µM [falling, single point]",
COc1cc(O)c2c(c1)COC2=O,0.37,,"0.13 µM [falling, full curve, poor fit]"
O=C(O)c1cccc(NC(=O)c2cccc(S(=O)(=O)Nc3cccc([N+](=O)[O-])c3)c2)c1,11.7,,"6.51 µM [falling, single point]"
CC1CN(C(=O)c2cccc(COc3ccc(Br)cc3)c2)CC(C)O1 (stereo not given),55.7,"29.1 µM [rising, single point]",
Cc1ccc(C(=O)CC2(O)C(=O)N(Cc3ccccc3)c3ccccc32)o1 (stereo not given),11.9,,
COc1cccc(CN(CC2CCCO2)S(=O)(=O)c2ccc(S(=O)(=O)N(C)C)cc2)c1 (stereo not given),21.9,,"6.51 µM [rising, single point]"
COc1ccccc1C(=O)NNC(=O)C(=O)NCc1ccccc1,-40.1,"29.1 µM [falling, single point]","18.4 µM [falling, single point]"
Fc1cccc(Cl)c1/C=N/Nc1c(Cl)cncc1Cl,2.7,,"0.82 µM [falling, single point]"

# Structural class, the compounds so far with bromine.
Compound,cell number change [%],AC50 [1],AC50 [2]
O=c1[nH]c(/C=C/c2ccc(Br)cc2)nc2c1cnn2-c1ccccc1,-6.77,"0.116 µM [falling, full curve]",
CC1CN(C(=O)c2cccc(COc3ccc(Br)cc3)c2)CC(C)O1 (stereo not given),55.7,"29.1 µM [rising, single point]",
